From PubChem BioAssay AID504467 (National Center for Advancing Translational Sciences (NCATS), 2011)
The whole screen tested about 330,000 compounds, of which about 7,700 (2.3%) were called active. The inconclusive results got no clear call from the source; some entries with a clear call stand among them for comparison. Calls come from the whole dose curve; as a rule, active = well fitted inhibition curve with a large enough effect; inconclusive = small, poorly fitted or top-dose-only effect, or effect the other way; inactive = flat fitted curve, though single readings scatter. Potencies of inconclusive entries are doubtful fits and often do not repeat.
Potency is the fitted concentration of half-maximal effect.

Assay: qHTS screen for small molecules that inhibit ELG1-dependent DNA repair in human embryonic kidney (HEK293T) cells expressing luciferase-tagged ELG1; note: nearly all actives have a fitted effect of over 55% in size
Details: HEK293T ELG1-luciferase reporter, luminescence, 16 h, DNA damage induced by 5-fluorouridine; series mostly up to 46.1 µM
Method in brief: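 Cells (2,000 per well) received 5-fluorouridine plus test compound or DMSO and were incubated 16 hr at 37 °C, 5% CO2. Luciferase activity was read by luminescence 30 min after ONE-Glo addition; signal suppression marked inhibition of damage-induced ELG1 function.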
In the case of `COCCn1c(SCc2ccccc2)nc2c1c(=O)[nH]c(=O)n2C`, the Potency is reported as inconclusive: 20.6 µM [activator, partial curve, poor fit]. With `O=Cc1cn(-c2ccccc2)nc1-c1ccc(F)cc1` the Potency was inconclusive: 8.2 µM [activator, partial curve, poor fit]. For `CCOc1cccc(/C=N/N2C(=O)CSC2=S)c1O`, the Potency was inconclusive: 1.16 µM [inhibitor, single point]. With `COc1ccccc1C(=O)Nc1ccc(NC(=O)c2ccco2)cn1` the Potency was inconclusive: 14.6 µM [activator, partial curve]. With `O=C(NCc1cccnc1)c1cc(Sc2ccc(F)cc2F)nc2ccccc12` the Potency was active: 20.6 µM. With `O=C(NC(=S)NCCc1ccccn1)c1ccco1` the Potency was inconclusive: 16.4 µM [activator, single point]. With `Cc1ccc(NC(=O)c2cccnc2C(=O)O)nc1` the Potency was inconclusive: 29.1 µM [activator, single point]. In the case of `CC(NC(=O)c1ccco1)C(=O)Nc1nccs1` (stereo unspecified), the Potency is reported as “inactive”. With `Cn1ccnc1C(OC(=O)c1ccccc1)C(F)(F)F` (stereo unspecified) the Potency was “inactive”. In the case of `O=C(CNC(=O)c1cccc(F)c1)N/N=C/c1cccs1`, the Potency is reported as “inactive”. In the case of `COc1cc2c(cc1OC)C(COc1ccccc1OC)N(C(=O)C(C)C)CC2` (stereo unspecified), the Potency is reported as inconclusive: 25.9 µM [inhibitor, partial curve, poor fit]. With `CC12CC3(C)CC(C)(C1)CC(C(=O)NC(=S)N1CCOCC1)(C2)C3` the Potency was “inactive”. For `CS(=O)(=O)c1ccc(Cl)c(C(=O)Nc2ccc3nc(N4CCOCC4)sc3c2)c1`, the Potency was “inactive”. For `CC(=O)c1cc(C(=O)NC2CCCc3c2cnn3-c2cc(C)cc(C)c2)[nH]n1` (stereo unspecified), the Potency was inconclusive: 20.6 µM [activator, single point]. For `CC(=O)Nc1ccc(NC(=O)C(C)OC(=O)/C=C/c2cn(-c3ccccc3)nc2-c2cccnc2)cc1` (stereo unspecified), the Potency was active: 1.64 µM. For `COc1ccc(C(=O)C2CCCN(Cc3c[nH]c4ccccc34)C2)c(OC)c1` (stereo unspecified), the Potency was “inactive”. In the case of `Cc1nnc(NC(=O)C2CCCN2C(=O)Nc2ccccc2)s1` (stereo unspecified), the Potency is reported as inconclusive: 18.3 µM [activator, partial curve, poor fit]. For `Cc1ccc(C(=O)Nc2ccc(S(=O)(=O)Nc3cnc4ccccc4n3)cc2)cc1`, the Potency was inconclusive: 20.6 µM [activator, single point]. In the case of `COc1ccc(-c2[nH]ncc2CNC(C)c2cn(C)nc2C)c(F)c1` (stereo unspecified), the Potency is reported as “inactive”. With `CC(NCc1ccc(-c2ccccc2)cc1)C(O)c1ccccc1` (stereo unspecified) the Potency was “inactive”. For `CCOc1cc(NC(=O)c2ccccc2C)c(OCC)cc1NC(=O)C1=Cc2ccccc2OC1`, the Potency was “inactive”. With `COc1ccc(CN2CCNC(=O)C2CC(=O)NC2CCCCCC2)cc1C` (stereo unspecified) the Potency was inconclusive: 20.6 µM [activator, single point]. In the case of `NC(=O)CSc1cn(CCNC(=O)c2cccs2)c2ccccc12`, the Potency is reported as “inactive”. In the case of `CCCCn1c(N)c(-c2nc3ccccc3s2)c2c([N+](=O)[O-])nn(CC)c(=O)c21`, the Potency is reported as inconclusive: 0.731 µM [inhibitor, full curve]. In the case of `CCc1ccc(-n2nc3ccc(NC(=O)c4ccc5c(c4)OCO5)cc3n2)cc1`, the Potency is reported as inconclusive: 23.1 µM [activator, partial curve, poor fit]. For `Cn1c(SCC(=O)Nc2ccc(F)cc2)nnc1-c1cccnc1`, the Potency was “inactive”. In the case of `COc1ccc(Cn2c(=O)[nH]c3cc(C(=O)NC4CCN(Cc5ccccc5)CC4)ccc32)cc1`, the Potency is reported as inconclusive: 6.51 µM [inhibitor, partial curve]. With `O=S(=O)(Nc1cccc(-c2ccc(N3CCCCCC3)nn2)c1)c1ccc(F)cc1` the Potency was inconclusive: 8.2 µM [activator, partial curve]. With `Cc1ccc(N(CC(=O)NCc2ccccn2)S(=O)(=O)c2ccccc2)cc1C` the Potency was “inactive”. In the case of `Cc1ccc(NC(=O)C2CCN(S(=O)(=O)c3ccc(F)cc3)CC2)cc1`, the Potency is reported as “inactive”. With `O=c1c(O[C@@H]2O[C@H](CO)C(O)C2O)c(-c2ccc(O)c(O)c2)oc2cc(O)cc(O)c12` (stereo partly specified) the Potency was inconclusive: 9.2 µM [activator, partial curve, poor fit]. With `O=C(NCCCn1ccnc1)c1ccc(NS(=O)(=O)c2ccc(Cl)c(Cl)c2)cc1` the Potency was inconclusive: 6.51 µM [activator, full curve, poor fit]. With `CCN(CC)C(=O)Cn1cc(C(=O)C(=O)Nc2ccc3c(c2)OCCO3)c2ccccc21` the Potency was inconclusive: 2.31 µM [activator, single point]. In the case of `CC1(C)CC(=O)C2=C(C1)OC(N)=C(C#N)C2c1ccccc1[N+](=O)[O-]` (stereo unspecified), the Potency is reported as “inactive”. With `COc1ccc(N2CCN(C(=O)CSc3nc4[nH]ncc4c(=O)n3-c3ccc(Br)cc3)CC2)cc1` the Potency was inconclusive: 23.1 µM [inhibitor, partial curve, poor fit]. In the case of `Cc1cccc(CNS(=O)(=O)c2csc(C(N)=O)c2)c1`, the Potency is reported as “inactive”. In the case of `O=C(Nn1c(-c2ccncc2)nc2ccccc2c1=O)c1ccc(Br)cc1`, the Potency is reported as “inactive”. In the case of `COc1cc2c(cc1NC(=O)c1ccccc1F)CCCC2`, the Potency is reported as inconclusive: 23.1 µM [activator, partial curve]. With `CCN=C1S/C(=C\c2cn(C(C)=O)nc2-c2ccccc2)C(=O)N1CC` the Potency was inconclusive: 23.1 µM [inhibitor, single point]. In the case of `O=S(=O)(NCc1ccccc1)c1ccc(Cl)cc1`, the Potency is reported as inconclusive: 29.1 µM [inhibitor, partial curve, poor fit]. In the case of `Cc1ccc(NC(=O)NC(=O)CSc2nnc(-c3ccc(Cl)cc3Cl)n2N)c(C)c1`, the Potency is reported as inconclusive: 29.1 µM [inhibitor, single point]. In the case of `O=C(NCCCN1CCCC1=O)C(=O)NCC1OCCCN1S(=O)(=O)c1cc(F)ccc1F` (stereo unspecified), the Potency is reported as “inactive”. With `Clc1ccc(-c2nnc(CNC3CC3)o2)cc1` the Potency was inconclusive: 32.6 µM [activator, partial curve, poor fit]. With `O=C(Nc1ccccc1)C1=C[C@H](c2ccccc2)C[C@H](OCc2ccc(CO)cc2)O1` the Potency was “inactive”. In the case of `Cc1cc(C)c(/C=C(\C#N)S(=O)(=O)c2ccccc2)[nH]1`, the Potency is reported as “inactive”. With `CCOc1ccc(S(=O)(=O)/N=C(\N)c2ccccc2)cc1` the Potency was active: 23.1 µM.
